From patent US20020119178A1 (priority 2001, published 2002)

System: human saphenous vein smooth muscle cells (HSV-SMC)
Assay: HSV-SMC proliferation assay (MTS), drugs at known concentrations
Assay type: cell-based
Details: 72 h, read-out: IC50 (concentration at which the proliferation is reduced by 50%)
Protocol: A proliferation assay was performed using human saphenous vein smooth muscle cells (HSV-SMC) with cells at passage 3-5. HSV-SMC were established in 96-well plates for 24 hours then serum starved for 48 hours. […] A positive control (100%) was set for cells exposed to DMEM supplemented with 20% FBS only while a negative control (0%) was set for cells exposed to only unsupplemented DMEM. Cells were stimulated for 72 hours with the anti-proliferative drug containing culture media. A solution of [3-(4,5-dimethylthiazol-2-yl)-5-(3-carboxymethoxyphenyl)-2-(4-sulfophenyl)-2H-tetrazolium](MTS, a cell proliferation marker) is then added onto the cells for 3 hours. Absorbance at 490 nm is recorded using a 96-well plate reader.

COc1cc2c(c(OC)c1OC)-c1ccc(OC)c(=O)cc1[C@@H](NC(C)=O)CC2 [colchicine]
IC50: 1 nM
